All values are in %. How 0% and 100% were set is not recorded. Most values in the screen are low, and negative values occur. This is an unselected part of the compounds tested. A dash means the value is not listed here; it may have been measured.

Chains of the proteins cited; added tags and fusions are not shown.
UniProt E9BF75, entry or part of it: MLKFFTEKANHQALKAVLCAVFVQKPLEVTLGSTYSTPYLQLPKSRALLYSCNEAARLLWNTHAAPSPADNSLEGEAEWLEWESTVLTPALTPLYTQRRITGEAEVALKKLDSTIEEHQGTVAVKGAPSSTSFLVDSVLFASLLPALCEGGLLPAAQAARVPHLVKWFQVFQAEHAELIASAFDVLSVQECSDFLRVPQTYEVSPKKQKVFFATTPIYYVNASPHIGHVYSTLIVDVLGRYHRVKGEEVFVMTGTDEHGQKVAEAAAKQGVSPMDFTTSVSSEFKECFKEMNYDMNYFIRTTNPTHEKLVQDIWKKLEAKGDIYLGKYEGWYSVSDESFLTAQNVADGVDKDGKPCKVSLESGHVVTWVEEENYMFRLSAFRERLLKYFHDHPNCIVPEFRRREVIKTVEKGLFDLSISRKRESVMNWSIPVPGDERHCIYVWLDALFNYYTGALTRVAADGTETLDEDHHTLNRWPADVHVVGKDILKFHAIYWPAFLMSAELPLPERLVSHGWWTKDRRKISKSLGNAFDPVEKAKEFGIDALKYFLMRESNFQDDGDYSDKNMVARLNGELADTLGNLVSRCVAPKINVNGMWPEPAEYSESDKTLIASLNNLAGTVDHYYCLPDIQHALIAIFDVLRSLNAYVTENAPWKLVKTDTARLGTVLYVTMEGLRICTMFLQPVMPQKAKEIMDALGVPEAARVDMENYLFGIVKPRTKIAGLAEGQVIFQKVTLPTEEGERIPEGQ

Mtb heat-shock: 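Assay on Mycobacterium tuberculosis, filed only as a heat shock assay from Cornell; the read-out is not stated. The concentration is filed as 10 mM, unlikely as a test dose, so the dose is not known. The record gives no direction; compounds that gave an IC50 in retests scored well above the rest, so higher reads as stronger inhibition. Of about 69,000 compounds tested this way, about 930 (1.4%) reached 50% or more in at least one test.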
LdMetRS: 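Methionyl-tRNA synthetase (putative), Leishmania donovani (UniProt E9BF75). Primary screen of methionyl-tRNA synthetase; the read-out is not stated. The test concentration is not given. The values are filed as inhibition. About 68,000 compounds were tested under these conditions; 0.035% (about 24) showed 50% or more at least once.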
Mtb growth Cornell: 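Whole-cell assay for inhibitors of Mycobacterium tuberculosis growth, labelled Cornell in the record; the read-out is not stated. The concentration is filed as 10 mM, unlikely as a test dose, so the dose is not known. Higher means stronger inhibition (inferred from two other growth screens of the library). About 53,000 compounds were tested under these conditions; 1.7% (about 900) showed 50% or more at least once.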

| # | structure | Mtb heat-shock | LdMetRS | Mtb growth Cornell |
|---|---|---|---|---|
| 1 | `Cc1nnc(N2CCC(NS(C)(=O)=O)CC2)c(C#N)c1C` | 18.23 | 10.65 | -58.16 |
| 2 | `COCC(NC(=O)c1cn(-c2cccc(Cl)c2F)nn1)C1CC1` (configuration not stated) | 10.16 | 19.83 | 16.47 |
| 3 | `O=c1cc(CN2CCCC2)nc2n1CCCN(Cc1ccoc1)C2` | -6.805 | 18.4 | 9.207 |
| 4 | `CCCC(=O)N(CCCN1CCOCC1)c1nc2c(Cl)cccc2s1` | - | 2.878 | - |
| 5 | `O=C1NC(c2ccccc2)=N[C@@]12CC[C@@H]1CN(CC3CC3)C[C@@H]12` | - | 10.75 | - |
| 6 | `Cc1noc(CNc2ccccc2N2CCCCC2)n1` | -5.512 | 6.15 | - |
| 7 | `Cc1cccc2[nH]c(C3CCN(C(=O)c4cnc[nH]c4=O)CC3)nc12` | 1.019 | 13.38 | -6.067 |
| 8 | `Cc1nn(C)c(Cl)c1C1CCCN1C(=O)c1ccnc(N(C)C)c1` (configuration not stated) | -1.315 | 13.81 | - |
| 9 | `CC(=O)c1ccc(CN2CCCC23CCN(c2ccccn2)CC3)cc1` | -0.5878 | 8.869 | -29.12 |
| 10 | `Cn1cc(C[C@H]2[C@H](O)CCN2C(=O)c2ccsc2)cn1` | 1.675 | 12.94 | 22.45 |
| 11 | `CN(CCc1ccccn1)C(=O)CCC1CCCN(S(C)(=O)=O)C1` (configuration not stated) | -25.42 | 1.25 | - |
| 12 | `Cc1ccccc1C(=O)N1CC2(COC(C)(C)OC2)C1` | -2.485 | 5.755 | -44.61 |
| 13 | `CN(CCCOc1ccccc1)C(=O)c1csc(-c2nnc[nH]2)n1` | -8.095 | 19.77 | 5.939 |
| 14 | `O=C(O)C(F)(F)F.[H][C@@]12COC[C@@H](CC(=O)N3CCCCO3)[C@]1([H])CN(Cc1c(C)noc1C)C2` | -4.663 | - | 5.318 |
| 15 | `Cc1ccccc1C(NC(=O)CCCS(C)(=O)=O)C(C)(C)C` (configuration not stated) | -11.82 | 13.94 | - |
| 16 | `Cc1occc1C(=O)N1CCCn2cnc(CN3CCCC3=O)c2C1` | -32.63 | 19.8 | - |
| 17 | `c1cnc(NCc2nnn3c2CN(CC2CC2)CCC3)nc1` | - | 3.279 | - |
| 18 | `O=C(CN1CCCCCC1=O)NC1CCc2nccn2C1` (configuration not stated) | -1.363 | 5.966 | - |
| 19 | `CCn1ccnc1CN1CCCC(CO)(Cc2cccc(OC)c2)C1` (configuration not stated) | 9.049 | 7.829 | - |
| 20 | `O=C(O)C(F)(F)F.O=C(O)C(F)(F)F.O=C(O)C(F)(F)F.[H][C@@]12CCN(Cc3nccs3)C[C@]1([H])[C@@H](CNc1ncccn1)OC2` | -22.37 | - | -23.92 |
| 21 | `Cc1nc[nH]c1CN1CCCC(CNC(=O)c2ccncn2)C1` (configuration not stated) | -16.66 | 21.04 | -52.38 |
| 22 | `O=C(C1CCOCC1)N1CCc2ncnc(-c3ccccc3)c2CC1` | 2.701 | 12.7 | -27.49 |
| 23 | `Cc1nn(-c2ccccc2)cc1C(=O)N1CCCC(n2ccnc2C)C1` (configuration not stated) | -5.39 | 23.41 | -16.19 |
| 24 | `Cc1cc(C)n(CC2CCCN2C(=O)CCCc2ccccn2)n1` (configuration not stated) | -5.556 | 9.184 | - |
| 25 | `CCN(C)C(=O)c1ccc(N2CCC(Oc3cccc(F)c3)CC2)nc1` | 12.25 | 8.541 | 11.92 |
| 26 | `Cl.O=C1CC(NCc2cnc(N3CCCC3)nc2)CN1c1ccccc1` (configuration not stated) | 0.5581 | - | -6.045 |
| 27 | `CN1CCCCC12CCN(c1nncs1)CC2` | - | 1.418 | - |
| 28 | `O=C(O)C(F)(F)F.O=C(O)C(F)(F)F.[H][C@@]12CCCO[C@]1([H])[C@H](OCC)CN2Cc1scnc1C` | -15.18 | - | 15.18 |
| 29 | `Cc1cc(CN2C[C@@H]3COC[C@]3(COCC(=O)N(C)C)C2)no1` | - | 14.21 | - |
| 30 | `O=C(O)C(F)(F)F.[H][C@@]12COC[C@]1(CNC(=O)N1CCCC1)CN(Cc1cc(C)on1)C2` | 3.236 | - | 32.23 |
| 31 | `CC(C)CN1CCC(C(=O)Nc2cc(C(F)(F)F)c[nH]c2=O)CC1` | 6.521 | 7.692 | 12.68 |
| 32 | `O=C(C[S+]([O-])Cc1cccc(F)c1)NC1CCCC1` (configuration not stated) | -4.252 | 13.75 | 22.54 |
| 33 | `O=C(NCC1CC1)C1CN(C(=O)c2ccncc2)CC12CCOCC2` (configuration not stated) | 18.37 | 13.73 | -3.982 |
| 34 | `COCCOc1ccc(CNCC2CNc3cc(C)nn3C2)cn1` (configuration not stated) | -31.45 | 15.3 | - |
| 35 | `[H][C@@]12C[C@@H](Oc3ccccc3)C[C@]1([H])CN(C(=O)c1cnc(N(C)C)nc1)C2` | -8.108 | - | 24.56 |
| 36 | `CN(Cc1ccc(C2CC(=O)Nc3cc4[nH]ncc4cc32)o1)S(C)(=O)=O` (configuration not stated) | -5.377 | 12.57 | - |
| 37 | `O=C(Nc1ccccc1)C1CCCN(C(=O)Cn2cncn2)C1` (configuration not stated) | 4.683 | 8.052 | 17.34 |
| 38 | `NC(=O)c1cnc(NC2CCN(c3ccccn3)CC2)c(Cl)c1` | 9.703 | 13.98 | 18.4 |
| 39 | `CCN(c1ccc(C(=O)NCc2ccnc(C)n2)cc1)C(C)C` | -23.78 | 5.85 | - |
| 40 | `COCCN1CC(=O)c2sc(NCc3ccccc3)nc2C1` | 4.077 | 4.126 | 7.09 |
| 41 | `CN(C)Cc1cc(=O)n2c(n1)CN(C(=O)Cc1cccs1)CCC2` | - | 19.26 | - |
| 42 | `CCC[C@H]1CN(Cc2cc(C#N)n(C)c2C)C[C@@H]1NS(=O)(=O)CC` | -5.111 | -1.412 | -30.25 |
| 43 | `O=C(CCc1ccc(Cl)cc1)NC1CCN(c2cccc(F)c2)CC1` | 1.407 | 10.67 | 18.92 |
| 44 | `[H][C@@]12CN(C(=O)c3ccc(OC)cc3)CCN1C(=O)CNC2=O` | -33.51 | - | - |
| 45 | `Cc1nnsc1C(=O)N1CCC2(CC1)c1nc[nH]c1CCN2CC(C)C` | 8.826 | 15.61 | -3.152 |
| 46 | `Cc1cc(C)n(-c2ccc(C(C)NS(N)(=O)=O)cc2)n1` (configuration not stated) | -25.97 | 21.82 | - |
| 47 | `O=C(NCc1ccccn1)[C@H]1COC[C@H]2CN(Cc3ccoc3)C[C@H]21` | - | 17.85 | - |
| 48 | `COCC1CN(Cc2ccncc2)Cc2nn(CC3CC3)cc21` (configuration not stated) | - | 16.83 | - |
| 49 | `Cc1nccn1CC1CCCN1S(=O)(=O)Cc1ccccc1F` (configuration not stated) | 7.222 | 8.92 | -25.53 |

Some entries from above, unchanged:

For O=C1NC(c2ccccc2)=N[C@@]12CC[C@@H]1CN(CC3CC3)C[C@@H]12 the result was LdMetRS: 10.75%.
For CC(C)CN1CCC(C(=O)Nc2cc(C(F)(F)F)c[nH]c2=O)CC1 the result was Mtb heat-shock: 6.521%; LdMetRS: 7.692%; Mtb growth Cornell: 12.68%.
For O=C(O)C(F)(F)F.[H][C@@]12COC[C@@H](CC(=O)N3CCCCO3)[C@]1([H])CN(Cc1c(C)noc1C)C2 the result was Mtb heat-shock: -4.663%; Mtb growth Cornell: 5.318%.
For Cc1nc[nH]c1CN1CCCC(CNC(=O)c2ccncn2)C1 (configuration not stated) the result was Mtb heat-shock: -16.66%; LdMetRS: 21.04%; Mtb growth Cornell: -52.38%.
For [H][C@@]12C[C@@H](Oc3ccccc3)C[C@]1([H])CN(C(=O)c1cnc(N(C)C)nc1)C2 the result was Mtb heat-shock: -8.108%; Mtb growth Cornell: 24.56%.

Measurements from “University of Dundee, Small-Polar-MMV Screening Library” (2021), ChEMBL document CHEMBL3988442.